Measurements reported in PubChem BioAssay AID1259405 (NCATS, 2018).
This is one part, drawn at random, of about 50,000 reagents. Of all reagents, about 4,000 (8%) were called active. 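Mouse siRNA library applied to hamster cells; one well for each siRNA.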 The numbers tell different reagents against one gene apart.

Screen: 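Mouse-designed siRNAs used to find CHO productivity engineering targets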 (primary screen)
Cells: Chinese hamster CHO-K1 ovary cells with stable secreted eGFP expression
Knock-down reagent: single siRNA against mouse genes, 0.8 pmol siRNA per well (2 µl of 400 nM stock)
Time to read-out: 3 days
Measurement: 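Per-well intracellular GFP measured by laser scanning cytometry, plus viability from ATP luminescence, each relative to plate median of non-targeting control wells, in %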
Scale: GFP, % of control: higher = more GFP per well, higher productivity; viability (ATP), % of control: higher = more viable cells (more ATP)
Active means: 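a knock-down is called active if GFP reaches 120% or more of non-targeting control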

target gene,reagent no.,"GFP, % of control","viability (ATP), % of control",activity call
Six1,1,88.6,85.5,inactive
Six1,2,83.9,42.7,inactive
Six1,3,84.9,91.1,inactive
Lncpint,1,83.9,80.6,inactive
Lncpint,2,63.4,47.3,inactive
Lncpint,3,66.4,84.6,inactive
Cyp26a1,1,49.6,59.6,inactive
Cyp26a1,2,76.4,73.9,inactive
Cyp26a1,3,127,69.1,active
Selenov,1,83.1,94.3,inactive
Selenov,2,88.2,90.2,inactive
Selenov,3,87,81.9,inactive
Tob2,1,52.1,62.9,inactive
Tob2,2,94.1,104,inactive
Tob2,3,126,136,active
Ech1,1,88.6,87.2,inactive
Ech1,2,69.9,80.3,inactive
Ech1,3,76.3,84.3,inactive
Foxc1,1,71.5,103,inactive
Foxc1,2,114,55.8,inactive
Fam149b,1,33.5,42.5,inactive
Fam149b,2,71.2,36.9,inactive
Fam149b,3,73.3,73.2,inactive
Pcdhb16,1,96.7,104,inactive
Pcdhb16,2,126,95.5,active
Exosc1,1,61.9,75.2,inactive
Exosc1,2,135,96.9,active
Exosc1,3,67.7,64.5,inactive
Dlg3,1,50.3,87.1,inactive
Dlg3,2,101,91.1,inactive
Robo2,1,101,71.4,inactive
Robo2,2,58.2,115,inactive
Robo2,3,44.7,77.2,inactive
Emd,1,64.6,77.3,inactive
Emd,2,67.3,47.2,inactive
Emd,3,118,91.6,inactive
Gpr88,1,58.3,74.9,inactive
Gpr88,2,84.9,72.4,inactive
Gpr88,3,77.3,75.4,inactive
Asap2,1,111,115,inactive
Asap2,2,78.8,81.9,inactive
Asap2,3,63.2,84.4,inactive
Eif2s3x,1,62.5,65.2,inactive
Eif2s3x,2,35.6,41.4,inactive
Eif2s3x,3,50.3,51.5,inactive
Tada3,1,75.9,91.1,inactive
Tada3,2,57.7,56.7,inactive
Vps39,1,74.5,55.1,inactive
Vps39,2,58.8,57.7,inactive
Vps39,3,83.5,99.5,inactive
Erich5,1,53.4,68.2,inactive
Erich5,2,60.6,79.6,inactive
Erich5,3,123,124,active
Fhit,1,148,82.2,active
Fhit,2,248,72.5,active
Fhit,3,84.1,78,inactive
H1f7,1,98.2,91.9,inactive
H1f7,2,81.8,53.1,inactive
H1f7,3,85.2,141,inactive
Scin,1,60.3,63.6,inactive
Scin,2,44.3,44.9,inactive
Scin,3,76.5,66.7,inactive
Frmd4b,1,49.8,51.8,inactive
Frmd4b,2,63,76.6,inactive
Frmd4b,3,66.7,77.6,inactive
Trim31,1,71.7,81.7,inactive
Trim31,2,122,120,active
Trim31,3,78.9,116,inactive
Ttll8,1,70.1,76.7,inactive
Ttll8,2,93,77.1,inactive
Ttll8,3,65.5,62.8,inactive
L3mbtl3,1,94.7,97.2,inactive
L3mbtl3,2,138,95.1,active
L3mbtl3,3,58.5,33.6,inactive
Kmo,1,115,76.4,inactive
Kmo,2,86.5,61.4,inactive
Kmo,3,113,73,inactive
Nfx1,1,28.6,39.9,inactive
Nfx1,2,67.6,71.2,inactive
Nfx1,3,106,118,inactive
Pgls,1,58.2,61.7,inactive
Pgls,2,129,62.3,active
Pgls,3,86.9,66.6,inactive
Odam,1,76.2,84.9,inactive
Odam,2,94.9,49,inactive
Odam,3,68.3,60.9,inactive
Prr14l,1,80.1,79.3,inactive
Prr14l,2,68.1,80.9,inactive
Prr14l,3,72.5,115,inactive
Cdk2ap1,1,64.4,65.6,inactive
Cdk2ap1,2,94.4,96.6,inactive
Stt3a,1,88.6,75.8,inactive
Stt3a,2,144,47.9,active
Chtf8,1,50.7,82.5,inactive
Chtf8,2,74,88.1,inactive
Chtf8,3,68.1,122,inactive
Jade3,1,108,121,inactive
Jade3,2,101,84,inactive
Jade3,3,76.8,106,inactive
Igfbp1,1,79,83.5,inactive
Igfbp1,2,99,98.2,inactive
Igfbp1,3,40.1,51.3,inactive
Or52b1,1,87.6,69.2,inactive
Or52b1,2,29.1,49.6,inactive
Or52b1,3,53.6,96.9,inactive
Scn11a,1,83.4,100,inactive
Scn11a,2,74.3,48,inactive
Scn11a,3,77.2,73.4,inactive

Individual results from the list:
Entry for Chtf8 #1 in “viability (ATP), % of control”: 82.5
Under “GFP, % of control”, Pgls #3 shows 86.9
Fhit #2, GFP, % of control → 248
Erich5 #2, GFP, % of control: 60.6
Entry for Scn11a #2 in “activity call”: inactive
Frmd4b #3, activity call: inactive
